Results taken from publication PMC10052652 (Molecules, 2023).

Experiments:
Type in all cases: cell-based
MCF7 cells = assay: Cytotoxic activity, MTT assay, MCF7; conditions: Homo sapiens, MCF7, 72 h
Procedure: Optical density was measured at 540 nm. All tests were established in triplicate.

OVCAR-3 cells = assay: Cytotoxic activity, MTT assay, OVCAR-3; conditions: Homo sapiens, OVCAR-3, 72 h, read-out: IC50 OVCAR-3
Procedure: (§1) The cancer cell lines used in this study were HCT116 (colorectal carcinoma), IGROV1 (ovarian cancer), OVCAR3 (ovarian cancer), and MCF7 (mammary gland/breast cancer). […] Cell lines were maintained in culture and were incubated at 37 °C in an incubator with 5% CO2 in a humidified atmosphere. All tests were established at 80% of confluence, and viability was estimated with a trypan blue exclusion assay.
(§2) The cytotoxic activities of molecules against cancer cell lines were evaluated using an MTT assay. The MTT colorimetric assay was performed using 96-well plates. Cells were seeded in a 96-well plate, at a concentration of 10 × 10^3 cells/well for HCT116 and 12 × 10^3 cells/well for MCF7, IGROV1, and OVAR. Adherent cells were dispatched and incubated at 37 °C overnight in a 5% CO2-enriched atmosphere. […] After that, the medium was removed, and cells were treated with 50 µL of 3-(4,5-dimethylthazolk-2-yl)-2,5-diphenyl tetrazolium bromide (MTT) solution (3 mg/mL in PBS) at 37 °C for 20 to 40 min. To dissolve the […], we added 80 µL of 100% DMSO. Optical density was measured at 540 nm. All tests were established in triplicate. […]

SKOV-3 cells = assay: Cytotoxic activity, MTT assay, SKOV-3; conditions: Homo sapiens, SK-OV-3, 72 h
HCT116 cells = assay: Cytotoxic activity, MTT assay, HCT116; conditions: Homo sapiens, HCT-116, 72 h, read-out: IC50 HCT116, MTT, 72 h
Procedure: as §1, §2

CC/C(=C(\c1ccccc1)c1ccc(OCCN(C)C)cc1)c1ccccc1 [Tamoxifen, reference compound]
IC50 (MCF7 cells): 1000 ± 100 nM | IC50 (OVCAR-3 cells): 1400 ± 300 nM | IC50 (SKOV-3 cells): 1300 ± 100 nM | IC50 (HCT116 cells): 1000 ± 200 nM
